Consider one substance from paper PMC10593845.

Protein sequences, listed by entry. Tags and fused reporters are not part of them.
UniProt P53350: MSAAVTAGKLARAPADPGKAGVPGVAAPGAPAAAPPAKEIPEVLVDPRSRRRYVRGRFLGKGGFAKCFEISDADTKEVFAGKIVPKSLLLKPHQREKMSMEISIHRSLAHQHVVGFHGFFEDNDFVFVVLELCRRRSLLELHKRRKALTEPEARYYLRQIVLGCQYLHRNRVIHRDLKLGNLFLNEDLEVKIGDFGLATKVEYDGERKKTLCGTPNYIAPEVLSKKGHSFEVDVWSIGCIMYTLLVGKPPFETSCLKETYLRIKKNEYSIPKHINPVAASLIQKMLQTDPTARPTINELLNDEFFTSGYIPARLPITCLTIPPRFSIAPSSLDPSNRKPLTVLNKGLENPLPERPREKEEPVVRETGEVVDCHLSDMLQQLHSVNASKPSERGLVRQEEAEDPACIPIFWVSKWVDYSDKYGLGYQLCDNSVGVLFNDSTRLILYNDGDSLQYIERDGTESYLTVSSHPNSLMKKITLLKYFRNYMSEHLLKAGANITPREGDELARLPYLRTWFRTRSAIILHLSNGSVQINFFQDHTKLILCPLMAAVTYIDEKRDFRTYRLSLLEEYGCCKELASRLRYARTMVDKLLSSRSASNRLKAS

The target of this experiment is T1, endogenous TRIM26 (human (endogenous in HEK293T, T98G and U118)) (UniProt Q12899).
T1 sequence: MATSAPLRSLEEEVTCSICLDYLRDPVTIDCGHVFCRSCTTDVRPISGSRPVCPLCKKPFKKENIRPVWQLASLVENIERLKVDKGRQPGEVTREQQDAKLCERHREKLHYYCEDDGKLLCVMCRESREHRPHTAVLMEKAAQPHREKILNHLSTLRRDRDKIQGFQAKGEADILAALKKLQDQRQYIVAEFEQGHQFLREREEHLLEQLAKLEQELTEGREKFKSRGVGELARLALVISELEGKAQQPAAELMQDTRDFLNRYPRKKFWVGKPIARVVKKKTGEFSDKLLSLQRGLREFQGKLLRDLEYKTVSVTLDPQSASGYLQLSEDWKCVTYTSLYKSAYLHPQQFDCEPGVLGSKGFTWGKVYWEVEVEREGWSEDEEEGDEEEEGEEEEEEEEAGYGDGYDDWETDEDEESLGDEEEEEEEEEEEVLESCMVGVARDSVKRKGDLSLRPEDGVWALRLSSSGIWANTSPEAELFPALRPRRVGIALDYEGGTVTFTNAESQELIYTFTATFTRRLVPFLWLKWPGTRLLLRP
Kind of experiment: co-IP; endogenous proteins; cell lysates (T98G and U118 in Fig. 5a-d) precleared, primary antibody 4 °C overnight, protein A/G agarose, IB; also after PLK1 siRNA, onvansertib or MLN0905 (interaction of TRIM26 and GPX4 decreased).

No constants are given. Whether binding was seen depends on the method and setting. In cells and extracts the contact can be indirect. Some results given as binding are weak or reduced against the parent protein; the word gives no strength.

Consider “endogenous PLK1 (from UniProt P53350 1-603) (enzyme)”, for which the binding entry was “binds”.
